From US4276286A, “Process for decreasing ammonia concentration in domestic animals or fowls” (Kumiai Chemical Industry Co., Ltd., priority 1975, dated 1981)
At least one structure is not confirmed: it was looked up by name or label, or the drawing left a doubt.

System: ammonia
Assay: Ammonia concentration in the animal's body, intestine and blood or excrements (general statement)
Type: in vivo, animals

Compound: C=C(NC(=O)c1csc(-c2nc3c(cc2O)-c2nc(cs2)C(=O)NC(C(C)O)C(=O)NC(=CC)c2nc(cs2)C(=O)NC2CC(O)C(=O)OCc4cccc5[nH]c(c(C)c45)C(=O)SCC(NC(=O)c4csc2n4)c2nc-3cs2)n1)C(N)=O (centres unmarked) [Multhiomycin]
- Decrease of ammonia concentration in the animal's body and excrements (by fraction of the usual amount): 1/2 or 1/3
- Decrease of ammonia concentration in intestine and blood, relative to untreated animals (to the extent of fraction of untreated): 1/3 to 1/2
